Reference: patent US11013736B2, “Oral solid preparation and use thereof” (WUHAN LL SCIENCE AND TECHNOLOGY DEVELOPMENT CO., LTD., priority 2016, dated 2021)
Some entries share one result that the patent states for a list of compounds.

Tested on: spontaneously hypertensive rats
Assay: Antihypertensive efficacy test in spontaneously hypertensive rats (systolic blood pressure and heart rate by implanted sensor)
Assay type: in vivo
Settings: SHR, 1 mg/kg intragastric, systolic blood pressure
Protocol: 12-week-old spontaneously hypertensive rats (hereinafter referred to as SHR, purchased from Beijing Weitong Lihua Experimental Animal Technology Co., Ltd.) were anesthetized with 2.5% sodium pentobarbital for intraperitoneal injection. After that, the blood pressure sensing catheter of hypertension implant was inserted into their abdominal aorta, while the implant was fixed to the abdominal wall, and then postoperative daily care is performed after suturing.
Rats with systolic blood pressure exceeding 160 mm Hg were divided into 3 groups (control group, compound (A) group and compound (B) group), wherein each group has 8 rats. The control group was administrated 0.5% sodium carboxymethylcellulose (hereinafter referred to as CMC-Na); the compound (B) group and the compound (A) group were respectively administered the compound (B) and the compound (A), both of which were dissolved by 0.5% CMC-Na, by intragastric administration, at a dose of 1 mg/kg (calculated by the effective dose of valsartan) and a volume calculated by 4 mL/kg.
The systolic blood pressure and heart rate of SHR were compared before and after administration (the systolic blood pressure and heart rate of SHR before administration as reference value), which were detected three times at each time point with the average value recorded.

Compound | Time after administration at which the drug efficacy peaks [h]
CCOc1nc2cccc(C(=O)OC(C)OC(=O)OCc3nc(C)c(C)nc3C)c2n1Cc1ccc(-c2ccccc2-c2noc(=O)[n-]2)cc1.[K+] (single isomer, unassigned) [Compound (A)] | 5 to 7
CCOc1nc2cccc(C(=O)OC(C)OC(=O)OCc3nc(C)c(C)nc3C)c2n1Cc1ccc(-c2ccccc2-c2noc(=O)[n-]2)cc1.[K+] (single isomer, unassigned) [Compound (B), reference compound] | 5 to 7
